Measurements from article PMC7819943, “Rice protein-binding microarrays: a tool to detect cis-acting elements near promoter regions in rice”.
The other results are listed elsewhere or left out.

Molecular target: T1, OsSMF1 (Oryza sativa, UniProt Q6ZLB0 1-436)
T1 sequence: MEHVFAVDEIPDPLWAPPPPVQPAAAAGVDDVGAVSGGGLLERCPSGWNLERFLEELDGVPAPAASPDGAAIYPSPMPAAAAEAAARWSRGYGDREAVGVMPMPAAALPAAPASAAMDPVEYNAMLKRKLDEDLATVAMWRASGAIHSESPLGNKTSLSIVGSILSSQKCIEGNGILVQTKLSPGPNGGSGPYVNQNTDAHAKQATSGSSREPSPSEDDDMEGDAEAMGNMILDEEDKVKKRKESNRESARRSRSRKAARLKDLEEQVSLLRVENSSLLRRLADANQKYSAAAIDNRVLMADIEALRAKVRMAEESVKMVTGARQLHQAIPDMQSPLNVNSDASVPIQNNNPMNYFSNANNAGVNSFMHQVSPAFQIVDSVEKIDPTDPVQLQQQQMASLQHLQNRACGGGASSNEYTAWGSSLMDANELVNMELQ
Experiment: protein-binding microarray (RPBM); PBS, 2% BSA, 51.3 ng/ul salmon testes DNA, 50 uM zinc acetate, 200 nM TF, 25 C, 1 h; high values mean tight binding
Conditions: protein: recombinant; tags: N-terminal polyhistidine and DsRed monomer fusion (pET32a); chain copies: 2; label: CyDye5-dUTP incorporated in the synthesized complementary strand; 3' TTTTT single-stranded linker to array surface; dsDNA, one strand shown
Method in brief: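 Ni–NTA purification followed expression in E. coli BL21-CodonPlus of transcription factors fused N-terminally to a polyhistidine tag and DsRed. At 200 nM in PBS with 2% BSA, salmon testes DNA and 50 µM zinc acetate, the protein was incubated for 1 h at 25 °C with a custom Agilent array that had been primer-extended with Cy5-dUTP and blocked with 2% BSA. After washing, the array was read on an Axon 4000B scanner. The binding signal is per-feature fluorescence intensity in arbitrary units.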

Sequence	binding signal
CCGGTGTCACCGCCCTATCTCTCTCACGCATCCCACGCCGCGGAGTCACCTAGTGCAG	3770 fluorescence intensity (a.u.)
ATCCATATATATATATATATATATATATATATATATATATCGGAGTCACCTAGTGCAG	4260 fluorescence intensity (a.u.)
CTCAACGCTCACGTCGTATCACGTGCCATCCCGCGTCTCCCGGAGTCACCTAGTGCAG	3350 fluorescence intensity (a.u.)
ATACAAACGTGGCATGTTTGCCCTAACTATTATATCAGTACGGAGTCACCTAGTGCAG	5170 fluorescence intensity (a.u.)
TCTCTCACACACACACACACTCTCACTGACTCTGCTGCTGCGGAGTCACCTAGTGCAG	3740 fluorescence intensity (a.u.)
ATAAAAGGGGCCTAAGCTGAACGAGCTTCGCCACATCAGTCGGAGTCACCTAGTGCAG	5040 fluorescence intensity (a.u.)
GTGTAGGGCAGCAAGGTGACGTGGCACATGGCGCCGTGTGCGGAGTCACCTAGTGCAG	13600 fluorescence intensity (a.u.)
ACAGTAAAATTTCTCAAAAGGTCAAATACACAAGTGAACACGGAGTCACCTAGTGCAG	7440 fluorescence intensity (a.u.)
CACAACAATTTCGCAGCTCATAGCTGGGCACTACCACGCGCGGAGTCACCTAGTGCAG	3150 fluorescence intensity (a.u.)
TGAAACATATTTTCATGCGTCGGTGTCATCCTACGTACAACGGAGTCACCTAGTGCAG	5460 fluorescence intensity (a.u.)
CCCGCCGTGACGTCACCGGCCTATATATATCGCGGTGGCTCGGAGTCACCTAGTGCAG	16700 fluorescence intensity (a.u.)
TAGATTGCTTTTCAGTGAAACTACGTGCACATATGCATGCCGGAGTCACCTAGTGCAG	3250 fluorescence intensity (a.u.)
CTTGTATTACGTGTAATATTCATGATTGAGCAGGTTCCAACGGAGTCACCTAGTGCAG	4320 fluorescence intensity (a.u.)
CCAAGAACTTATAACTTAATGTTTAGATTCTTTGATGACGCGGAGTCACCTAGTGCAG	4660 fluorescence intensity (a.u.)
GAAGTATCAGTTAACTATACGCCTATACCTGCTAATGAACCGGAGTCACCTAGTGCAG	28400 fluorescence intensity (a.u.)
CCCCAACTGTCATCGCACGTTGGCGCTGAACTGGTGCGCCCGGAGTCACCTAGTGCAG	3780 fluorescence intensity (a.u.)
AGGGAGCAGGGTGGGCGTGTCTTCGTACATTGTTGCCAGGCGGAGTCACCTAGTGCAG	3820 fluorescence intensity (a.u.)
ACTGATTGGGATGCCACGTCAACGAAACTAGATATCCATACGGAGTCACCTAGTGCAG	8680 fluorescence intensity (a.u.)
CGGCAGCGGCAGTGTAGTGTCAGTCACTGGGTGTGCGCTTCGGAGTCACCTAGTGCAG	3390 fluorescence intensity (a.u.)
AAAGCGGACGTCATCATTCATCCTCGAGCCCCTCAACTGGCGGAGTCACCTAGTGCAG	8430 fluorescence intensity (a.u.)
ATGGTCCATGTCGCCGTACGTGACACCGGCCGCGAGCCTACGGAGTCACCTAGTGCAG	3200 fluorescence intensity (a.u.)
CTAGTTATAGAAATAGATAAAATCAATGACAAATCGTTGACGGAGTCACCTAGTGCAG	3190 fluorescence intensity (a.u.)
CTTGAGTCTCACTGTAGTTGAACTGCCTCCACGCAAGTTACGGAGTCACCTAGTGCAG	4040 fluorescence intensity (a.u.)
GATCCCGGCAACATTGGAGAAGATCATGACGGGGACGACCCGGAGTCACCTAGTGCAG	4210 fluorescence intensity (a.u.)
GCATGTAGCTATGCAGCCATCCACGTCACTCCTTGCGTACCGGAGTCACCTAGTGCAG	31800 fluorescence intensity (a.u.)
TTACAAACAACGCCTTGCATGATTGCATCATCGCCCTAAACGGAGTCACCTAGTGCAG	4300 fluorescence intensity (a.u.)
TTCGACCACGTCGTCGGCAACGTGCCGGAGCTCGCTCCGGCGGAGTCACCTAGTGCAG	3210 fluorescence intensity (a.u.)

Copied from the list.
Under binding signal, CCGGTGTCACCGCCCTATCTCTCTCACGCATCCCACGCCGCGGAGTCACCTAGTGCAG is listed with 3770 fluorescence intensity (a.u.)
Under binding signal, CTTGTATTACGTGTAATATTCATGATTGAGCAGGTTCCAACGGAGTCACCTAGTGCAG is listed with 4320 fluorescence intensity (a.u.)

Carrying on.

Sequence	binding signal
TATCATACCCACGTCGGTGCCCATTGGGTCACCCACGCGTCGGAGTCACCTAGTGCAG	5520 fluorescence intensity (a.u.)
GTGTTATGAGTTGTGCCACCGTCTTCTCTCCCGTATAATCCGGAGTCACCTAGTGCAG	3340 fluorescence intensity (a.u.)
ATCATTATTCCTACGTGTTTACAATTCTTCGATAAAATACCGGAGTCACCTAGTGCAG	4060 fluorescence intensity (a.u.)
CTTTTGCTTCTGTCGTGTTGTGTGTACCCAACGTGGGGTGCGGAGTCACCTAGTGCAG	3930 fluorescence intensity (a.u.)
ATTGAAGCCTATTTATTGGTAATACGTAATCTAGATTTGACGGAGTCACCTAGTGCAG	3700 fluorescence intensity (a.u.)
CATTCTTGATTTCATACGTAATAGCGATATGTTTCAATGTCGGAGTCACCTAGTGCAG	22300 fluorescence intensity (a.u.)
TTTAAACCTAGTTGTGTCATGATTTTACAATGTGGTGCTACGGAGTCACCTAGTGCAG	3390 fluorescence intensity (a.u.)
GTAAAGTTTTAGTACCTCGAGATATTATTTTGAAAACCATCGGAGTCACCTAGTGCAG	3290 fluorescence intensity (a.u.)
TGGGCTGATGCGCGACCATACTGACGCGTGTGCGGCAGATCGGAGTCACCTAGTGCAG	4450 fluorescence intensity (a.u.)
TCATGCAGACGTTCAAACGTTCGATGTGATAGGGCGTAAACGGAGTCACCTAGTGCAG	3390 fluorescence intensity (a.u.)
TGGTCCTCTTTGTCTGAAATCGACGGGTAGCAATGCACGCCGGAGTCACCTAGTGCAG	27900 fluorescence intensity (a.u.)
GCTTTAGGCCGATTTTGTTGGTGTGGCCGAATTTTGTGTGCGGAGTCACCTAGTGCAG	3870 fluorescence intensity (a.u.)
CAGCGATTACCGGGCGCTGTCCGCGACCCCAACCACCACCCGGAGTCACCTAGTGCAG	3140 fluorescence intensity (a.u.)
TGCCGGCACGTGCCTCATCCTCGTCGTTGGCATCCGTGCGCGGAGTCACCTAGTGCAG	5440 fluorescence intensity (a.u.)
ACACGTGGGTCCACGTAGGCGACACGTCAATGCCACGTCACGGAGTCACCTAGTGCAG	55900 fluorescence intensity (a.u.)
GATGACCACCACCAACAGGCAACAGCAGCAGCGTGGCGCCCGGAGTCACCTAGTGCAG	3430 fluorescence intensity (a.u.)
GCAGGTGGATTCGGCGAGCGCCCACGTGCTGACCACCGGCCGGAGTCACCTAGTGCAG	3590 fluorescence intensity (a.u.)
ATCGGTCGCGGCCGCTGGGATGAAGCCACGCGTCCCTCCCCGGAGTCACCTAGTGCAG	5130 fluorescence intensity (a.u.)
CTGCTGCAGTTGAGCTGTACTGTTTTGGTGGGTTGGTTTTCGGAGTCACCTAGTGCAG	4070 fluorescence intensity (a.u.)
GAATTTATGGTTGAATACTTAACTTAAAATCCAAGGAACCCGGAGTCACCTAGTGCAG	3220 fluorescence intensity (a.u.)
CACCGCATTCGGGAAGCTCGGACCTGATGAGGCACATCCACGGAGTCACCTAGTGCAG	10600 fluorescence intensity (a.u.)
CCACTGGACCCACATGTCATAGACACATGTGGACCCACATCGGAGTCACCTAGTGCAG	3740 fluorescence intensity (a.u.)
CGCCTGCGCCGAGCAGCCGCCGATCTCCGCCACGCGAGCACGGAGTCACCTAGTGCAG	5890 fluorescence intensity (a.u.)
CACTGTCATCCACTCGACCTGCCACGACACCCGCCACCGCCGGAGTCACCTAGTGCAG	8040 fluorescence intensity (a.u.)
CCCACCAGTTGTGGCCCACGTACGTGGCAATCCCTTCAGGCGGAGTCACCTAGTGCAG	6220 fluorescence intensity (a.u.)
CCACAGGTGCCTAGCTGGCAGCCGCGCGCCAACGCCGTAGCGGAGTCACCTAGTGCAG	4290 fluorescence intensity (a.u.)
CCGAAGGAGTACGTGCCAAGTCGGCCCATCAGGCCCACGTCGGAGTCACCTAGTGCAG	4010 fluorescence intensity (a.u.)
